Experimental data from patent publication US20260240836A1, “ENHANCER OF PHYSIOLOGICAL ACTIVITY OF HEPATOCYTE GROWTH FACTOR” (KYOWA HAKKO BIO CO., LTD., priority 2023, published 2026).

Tested on: muscle stem cells (satellite cells)
Assay: Bright-field morphology of muscle stem cells cultured with trisulfide and HGF
Format: cell-based, rat
Details: trisulfide (1:8000) plus HGF 3 ng/ml

SMILES: O=C(O)CCCCC1CCSSS1 (centres unmarked) [LA-SSS, lipoic acid trisulfide]
- morphology of cultured cells vs control groups (NC and PC): did not differ

SMILES: N[C@@H](CCC(=O)N[C@@H](CSSSC[C@H](NC(=O)CC[C@H](N)C(=O)O)C(=O)NCC(=O)O)C(=O)NCC(=O)O)C(=O)O [GSSSG, glutathione trisulfide]
- morphology of cultured cells vs control groups (NC and PC): did not differ
